From patent publication EP4692118A1
Substitutions are numbered along the chain they refer to. These are yes or no findings as the source states them, for the method shown. Some results given as binding are weak or reduced against the parent protein; the word gives no strength. One block for each binder: values may come before it.

The chains behind the UniProt entries cited, without tags or fusion partners. Residues count along the entry.
UniProt Q13443, residues 206-697: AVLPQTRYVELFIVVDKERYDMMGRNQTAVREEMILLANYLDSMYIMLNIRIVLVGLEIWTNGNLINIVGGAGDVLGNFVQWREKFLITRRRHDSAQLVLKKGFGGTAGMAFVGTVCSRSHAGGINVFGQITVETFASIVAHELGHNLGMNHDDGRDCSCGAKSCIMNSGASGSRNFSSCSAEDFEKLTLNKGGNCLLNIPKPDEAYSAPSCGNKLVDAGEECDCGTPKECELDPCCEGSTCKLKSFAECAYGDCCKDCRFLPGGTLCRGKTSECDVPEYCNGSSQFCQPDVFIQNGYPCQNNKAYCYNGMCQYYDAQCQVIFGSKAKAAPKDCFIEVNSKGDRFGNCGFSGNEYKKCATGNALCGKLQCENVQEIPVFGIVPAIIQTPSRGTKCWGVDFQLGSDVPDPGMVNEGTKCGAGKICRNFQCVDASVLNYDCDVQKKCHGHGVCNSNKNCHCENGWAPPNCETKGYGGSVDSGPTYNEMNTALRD

Columns and labels:
[1] = molecular target: Human ADAM-His protein (ACROBiosystems, Cat. No. AD9-H52H7) (human) (UniProt Q13443); assay: indirect ELISA
[2] = molecular target: Human ADAM-His protein (ACROBiosystems, Cat. No. AD9-H52H7) (human) (UniProt Q13443); assay: ELISA and Biacore
[3] = molecular target: cynomolgus ADAM9 protein (ACRO, Cat. No. AD9-C52H7) (cynomolgus monkey); assay: ELISA and Biacore

binding [1]: binds
B1: Ab4 (antibody, human IgG1, kappa, V domains shown)
VH: QVQLQESGAEVKRPGSSVKVSCKASGFTFPLYWMNWVRQRPGRGLEWMGRIIPIFGHTKYNEKFKDRATMTRDKSSSTAYMELSSLTSDDSAVYYCARGGYYYYPREGFLDYWGQGTSVTVSS
VL: DIVMTQSPSSLSVSPGERATINCRSSQSVDYSGDSYMNWYQQKPGQAPRLLIYAASDLESGVPDRFSGSGSGTDFTLNINGVEEEDAATYYCQQSREDPFTFGQGTKVEIKR

binding [2]: binds | binding [3]: binds | binding [1]: binds
B2: Ab15 (antibody, human IgG1, kappa, V domains shown)
VH: B1 VH with E6Q, S7P, V11L, R13K, S16A, M48I, R72A, K74E, D89E
VL: B1 VL with S9D, A47S, L58R, N78K, N80S, G81N, K107R
